Measured values published in the supplement of paper PMC10849652.
Some of the results follow.

By UniProt entry, the sequences of proteins in these tests, tags left out. Where a name states a change or a piece, a line headed by the entry shows the natural chain unless it says otherwise.
UniProt Q9UBF2: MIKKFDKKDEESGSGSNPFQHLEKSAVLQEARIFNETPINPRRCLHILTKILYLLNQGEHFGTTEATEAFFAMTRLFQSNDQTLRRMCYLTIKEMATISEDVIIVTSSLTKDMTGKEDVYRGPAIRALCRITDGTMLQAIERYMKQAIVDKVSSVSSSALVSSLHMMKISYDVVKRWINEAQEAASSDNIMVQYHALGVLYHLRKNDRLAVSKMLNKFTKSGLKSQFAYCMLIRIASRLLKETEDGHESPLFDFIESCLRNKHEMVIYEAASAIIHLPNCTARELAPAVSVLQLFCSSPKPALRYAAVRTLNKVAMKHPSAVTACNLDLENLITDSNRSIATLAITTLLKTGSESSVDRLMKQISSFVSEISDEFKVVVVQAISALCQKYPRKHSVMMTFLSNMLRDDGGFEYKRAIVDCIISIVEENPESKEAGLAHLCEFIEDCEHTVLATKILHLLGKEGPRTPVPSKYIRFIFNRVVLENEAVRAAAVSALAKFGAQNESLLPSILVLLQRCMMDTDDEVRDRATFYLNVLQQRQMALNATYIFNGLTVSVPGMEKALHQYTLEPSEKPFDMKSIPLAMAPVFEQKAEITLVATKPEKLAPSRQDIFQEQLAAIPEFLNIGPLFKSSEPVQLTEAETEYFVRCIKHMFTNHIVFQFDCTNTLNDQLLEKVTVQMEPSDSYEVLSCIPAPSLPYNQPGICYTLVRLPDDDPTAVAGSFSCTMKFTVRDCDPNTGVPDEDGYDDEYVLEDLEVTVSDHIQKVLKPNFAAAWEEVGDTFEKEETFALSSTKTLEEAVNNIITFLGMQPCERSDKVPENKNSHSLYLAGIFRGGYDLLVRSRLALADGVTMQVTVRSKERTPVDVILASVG
UniProt O75718: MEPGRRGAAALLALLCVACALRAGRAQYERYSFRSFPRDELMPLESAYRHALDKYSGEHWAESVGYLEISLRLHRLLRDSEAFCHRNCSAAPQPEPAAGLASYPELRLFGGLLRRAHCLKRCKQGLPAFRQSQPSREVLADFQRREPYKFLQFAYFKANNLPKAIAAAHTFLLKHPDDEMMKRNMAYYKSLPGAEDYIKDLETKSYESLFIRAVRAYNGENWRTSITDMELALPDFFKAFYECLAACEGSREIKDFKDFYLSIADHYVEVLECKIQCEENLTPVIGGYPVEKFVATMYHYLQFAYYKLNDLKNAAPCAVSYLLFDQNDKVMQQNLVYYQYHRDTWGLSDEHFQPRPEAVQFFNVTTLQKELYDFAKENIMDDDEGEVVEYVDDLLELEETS
UniProt O14579: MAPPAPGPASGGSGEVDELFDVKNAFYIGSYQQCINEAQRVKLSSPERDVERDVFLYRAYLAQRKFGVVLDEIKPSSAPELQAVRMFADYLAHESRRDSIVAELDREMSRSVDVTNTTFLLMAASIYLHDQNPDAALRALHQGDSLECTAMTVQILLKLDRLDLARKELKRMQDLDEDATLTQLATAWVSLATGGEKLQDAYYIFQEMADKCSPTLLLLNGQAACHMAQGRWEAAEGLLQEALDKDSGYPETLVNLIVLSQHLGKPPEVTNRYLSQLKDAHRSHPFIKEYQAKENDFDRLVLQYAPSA
UniProt Q9ULV4, whole entry, looked up: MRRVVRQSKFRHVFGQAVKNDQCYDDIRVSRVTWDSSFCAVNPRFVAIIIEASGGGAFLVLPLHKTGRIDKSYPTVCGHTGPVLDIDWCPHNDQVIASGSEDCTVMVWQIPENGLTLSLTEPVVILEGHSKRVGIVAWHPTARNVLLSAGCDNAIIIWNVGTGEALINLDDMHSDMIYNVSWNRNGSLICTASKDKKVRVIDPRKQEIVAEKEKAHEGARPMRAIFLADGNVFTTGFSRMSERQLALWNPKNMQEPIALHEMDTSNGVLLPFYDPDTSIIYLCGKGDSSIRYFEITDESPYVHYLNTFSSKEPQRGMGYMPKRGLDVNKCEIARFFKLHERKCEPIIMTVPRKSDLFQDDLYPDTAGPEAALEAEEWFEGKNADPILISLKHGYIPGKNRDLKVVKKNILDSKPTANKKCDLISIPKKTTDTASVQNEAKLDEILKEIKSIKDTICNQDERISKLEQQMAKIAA
UniProt Q92905, whole entry, looked up: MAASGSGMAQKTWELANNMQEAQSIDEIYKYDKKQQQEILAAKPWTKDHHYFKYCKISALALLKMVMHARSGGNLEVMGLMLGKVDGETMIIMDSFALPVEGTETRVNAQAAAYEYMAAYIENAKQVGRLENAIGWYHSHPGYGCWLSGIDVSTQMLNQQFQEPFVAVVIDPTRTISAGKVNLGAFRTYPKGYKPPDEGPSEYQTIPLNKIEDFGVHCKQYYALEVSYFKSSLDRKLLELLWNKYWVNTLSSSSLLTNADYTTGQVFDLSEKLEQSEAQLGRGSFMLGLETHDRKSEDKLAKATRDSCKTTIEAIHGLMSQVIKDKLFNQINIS
UniProt Q7Z5Q1: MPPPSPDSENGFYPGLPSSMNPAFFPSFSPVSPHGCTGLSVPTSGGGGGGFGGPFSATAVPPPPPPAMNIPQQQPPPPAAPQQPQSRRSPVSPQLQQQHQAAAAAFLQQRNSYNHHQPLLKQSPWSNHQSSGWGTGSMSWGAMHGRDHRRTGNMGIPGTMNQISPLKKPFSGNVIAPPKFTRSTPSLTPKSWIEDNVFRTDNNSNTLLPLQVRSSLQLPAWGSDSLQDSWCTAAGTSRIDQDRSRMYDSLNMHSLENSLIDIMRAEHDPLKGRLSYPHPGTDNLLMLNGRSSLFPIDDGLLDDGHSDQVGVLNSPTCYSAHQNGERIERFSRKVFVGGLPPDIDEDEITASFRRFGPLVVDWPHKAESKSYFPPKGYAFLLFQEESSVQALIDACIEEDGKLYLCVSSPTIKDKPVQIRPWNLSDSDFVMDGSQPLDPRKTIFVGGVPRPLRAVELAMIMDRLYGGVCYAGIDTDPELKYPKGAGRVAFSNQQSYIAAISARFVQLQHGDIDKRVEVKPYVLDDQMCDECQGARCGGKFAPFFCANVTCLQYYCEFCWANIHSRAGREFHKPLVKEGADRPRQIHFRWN
UniProt Q96HD1: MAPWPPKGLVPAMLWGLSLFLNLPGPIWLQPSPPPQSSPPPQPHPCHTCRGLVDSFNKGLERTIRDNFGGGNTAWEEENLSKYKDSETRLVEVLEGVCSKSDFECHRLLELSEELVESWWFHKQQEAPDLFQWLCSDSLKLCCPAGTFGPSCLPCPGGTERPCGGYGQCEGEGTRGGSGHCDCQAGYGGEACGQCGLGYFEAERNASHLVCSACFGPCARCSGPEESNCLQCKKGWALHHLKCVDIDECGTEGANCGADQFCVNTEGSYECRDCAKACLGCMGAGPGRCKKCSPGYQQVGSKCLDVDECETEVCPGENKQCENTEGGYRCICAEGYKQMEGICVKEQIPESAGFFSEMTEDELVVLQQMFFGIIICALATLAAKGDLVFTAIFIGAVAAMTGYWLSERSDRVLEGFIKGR
UniProt Q17RY0: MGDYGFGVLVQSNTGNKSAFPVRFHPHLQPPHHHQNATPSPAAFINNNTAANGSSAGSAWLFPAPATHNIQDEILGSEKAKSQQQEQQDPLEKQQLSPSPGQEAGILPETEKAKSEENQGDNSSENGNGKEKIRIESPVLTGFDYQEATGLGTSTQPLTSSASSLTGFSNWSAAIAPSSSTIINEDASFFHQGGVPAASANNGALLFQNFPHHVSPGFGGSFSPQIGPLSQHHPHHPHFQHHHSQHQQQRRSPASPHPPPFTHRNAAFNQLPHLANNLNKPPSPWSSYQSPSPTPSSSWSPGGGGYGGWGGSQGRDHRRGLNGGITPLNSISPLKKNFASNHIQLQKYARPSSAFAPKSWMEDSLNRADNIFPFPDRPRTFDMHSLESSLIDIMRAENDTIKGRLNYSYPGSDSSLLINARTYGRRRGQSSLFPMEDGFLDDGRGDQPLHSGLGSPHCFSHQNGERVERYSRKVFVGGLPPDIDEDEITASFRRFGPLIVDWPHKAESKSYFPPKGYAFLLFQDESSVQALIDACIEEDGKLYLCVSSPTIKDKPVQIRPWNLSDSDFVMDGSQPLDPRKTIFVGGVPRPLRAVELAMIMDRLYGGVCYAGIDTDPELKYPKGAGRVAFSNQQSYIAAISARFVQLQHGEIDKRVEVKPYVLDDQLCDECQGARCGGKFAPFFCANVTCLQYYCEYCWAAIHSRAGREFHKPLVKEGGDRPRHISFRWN
UniProt Q9P021, whole entry, looked up: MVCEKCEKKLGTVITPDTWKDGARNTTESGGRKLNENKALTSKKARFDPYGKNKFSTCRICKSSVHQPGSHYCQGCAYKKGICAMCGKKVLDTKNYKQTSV
UniProt P48730: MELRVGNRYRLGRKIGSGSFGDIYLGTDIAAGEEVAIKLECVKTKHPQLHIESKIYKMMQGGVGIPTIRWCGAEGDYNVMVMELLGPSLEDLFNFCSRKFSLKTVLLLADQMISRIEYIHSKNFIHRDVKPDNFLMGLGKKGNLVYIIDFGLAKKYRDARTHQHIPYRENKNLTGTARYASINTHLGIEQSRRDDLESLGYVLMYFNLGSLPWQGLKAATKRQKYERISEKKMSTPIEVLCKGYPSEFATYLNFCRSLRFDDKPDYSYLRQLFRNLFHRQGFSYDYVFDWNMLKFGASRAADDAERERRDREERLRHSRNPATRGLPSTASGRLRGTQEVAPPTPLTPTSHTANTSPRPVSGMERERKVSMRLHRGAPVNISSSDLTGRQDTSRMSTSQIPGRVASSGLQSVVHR
UniProt Q9UKF6: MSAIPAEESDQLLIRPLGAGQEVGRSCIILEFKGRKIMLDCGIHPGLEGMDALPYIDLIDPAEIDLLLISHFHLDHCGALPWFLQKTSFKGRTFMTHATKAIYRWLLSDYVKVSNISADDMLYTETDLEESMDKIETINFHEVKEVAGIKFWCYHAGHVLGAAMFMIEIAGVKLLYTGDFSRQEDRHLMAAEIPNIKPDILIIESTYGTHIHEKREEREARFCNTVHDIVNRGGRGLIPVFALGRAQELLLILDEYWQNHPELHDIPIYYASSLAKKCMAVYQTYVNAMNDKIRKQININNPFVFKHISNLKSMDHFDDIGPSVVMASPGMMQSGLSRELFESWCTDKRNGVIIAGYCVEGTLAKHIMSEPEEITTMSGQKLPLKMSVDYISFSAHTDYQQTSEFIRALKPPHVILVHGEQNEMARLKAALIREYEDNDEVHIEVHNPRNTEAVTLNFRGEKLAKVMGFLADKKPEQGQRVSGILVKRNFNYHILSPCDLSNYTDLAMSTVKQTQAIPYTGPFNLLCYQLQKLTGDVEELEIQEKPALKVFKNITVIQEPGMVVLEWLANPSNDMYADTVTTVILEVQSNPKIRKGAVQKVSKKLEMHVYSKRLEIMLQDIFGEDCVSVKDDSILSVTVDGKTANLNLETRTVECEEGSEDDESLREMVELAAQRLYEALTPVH
UniProt Q9Y646: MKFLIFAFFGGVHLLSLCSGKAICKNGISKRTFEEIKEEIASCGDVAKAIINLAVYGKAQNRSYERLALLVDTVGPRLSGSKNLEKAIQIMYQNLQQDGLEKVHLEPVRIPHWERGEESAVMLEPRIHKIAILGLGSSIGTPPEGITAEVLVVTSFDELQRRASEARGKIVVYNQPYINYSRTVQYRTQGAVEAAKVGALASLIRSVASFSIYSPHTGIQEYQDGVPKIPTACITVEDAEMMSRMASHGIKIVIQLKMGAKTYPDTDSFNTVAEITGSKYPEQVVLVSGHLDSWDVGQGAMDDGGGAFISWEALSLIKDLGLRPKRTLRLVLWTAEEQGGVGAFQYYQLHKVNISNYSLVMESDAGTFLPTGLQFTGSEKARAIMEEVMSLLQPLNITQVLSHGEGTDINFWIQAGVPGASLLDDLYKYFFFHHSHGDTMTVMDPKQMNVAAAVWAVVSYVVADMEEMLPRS
UniProt Q9UNS2: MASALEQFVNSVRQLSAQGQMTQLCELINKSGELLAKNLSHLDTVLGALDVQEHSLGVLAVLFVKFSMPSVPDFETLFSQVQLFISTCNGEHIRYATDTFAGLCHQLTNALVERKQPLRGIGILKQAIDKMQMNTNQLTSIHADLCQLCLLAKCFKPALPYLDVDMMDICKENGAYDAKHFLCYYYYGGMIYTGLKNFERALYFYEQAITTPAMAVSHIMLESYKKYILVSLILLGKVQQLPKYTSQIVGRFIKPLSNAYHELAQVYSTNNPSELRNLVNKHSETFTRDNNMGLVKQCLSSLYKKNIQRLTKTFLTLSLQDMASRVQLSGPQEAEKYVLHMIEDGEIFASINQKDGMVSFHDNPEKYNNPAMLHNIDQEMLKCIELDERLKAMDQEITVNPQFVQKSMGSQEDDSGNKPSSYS
UniProt P48729: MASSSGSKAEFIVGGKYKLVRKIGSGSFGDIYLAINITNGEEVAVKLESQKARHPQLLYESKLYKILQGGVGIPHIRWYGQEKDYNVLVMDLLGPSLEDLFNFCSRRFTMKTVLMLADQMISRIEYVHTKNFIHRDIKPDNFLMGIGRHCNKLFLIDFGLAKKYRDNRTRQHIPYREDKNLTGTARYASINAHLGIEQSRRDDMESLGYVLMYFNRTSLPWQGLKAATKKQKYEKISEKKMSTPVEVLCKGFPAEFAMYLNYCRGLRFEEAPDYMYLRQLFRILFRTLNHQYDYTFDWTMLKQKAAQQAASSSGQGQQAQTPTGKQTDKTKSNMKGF

Tests used:
Experiment in all cases: log2 fold change, soluble protein after heating vs DMSO (PISA); higher = thermal stabilisation; K562 cells, 10 uM, 30 min; active = over 0.2 and 3.5 SD of the protein, either way, in both replicates (recomputed)
saracatinib = compound: CN1CCN(CCOc2cc(OC3CCOCC3)c3c(Nc4c(Cl)ccc5c4OCO5)ncnc3c2)CC1 [saracatinib]
Summary of the method: (§1)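 For each measurement, 10 μM compound was applied for 30 min to K562 cells at 2×10^6 cells/mL. Aliquots were heated for 3 min across 48°C-58°C, pooled, and extracted in PBS with 0.5% NP-40 at 4°C; the supernatant after 21,000xg for 90 min was soluble protein. This was quantified by TMTpro 16plex LC-MS/MS with channel sums equalised, and thermal stability was reported relative to control samples from duplicates, on a log2 fold-change scale.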

sotrastaurin = compound: CN1CCN(c2nc(C3=C(c4c[nH]c5ccccc45)C(=O)NC3=O)c3ccccc3n2)CC1 [sotrastaurin]
Summary of the method: as §1

alvocidib = compound: CN1CC[C@H](c2c(O)cc(O)c3c(=O)cc(-c4ccccc4Cl)oc23)[C@H](O)C1 [alvocidib]
Summary of the method: as §1

Tubastatin A = compound: CN1CCc2c(c3ccccc3n2Cc2ccc(C(=O)NO)cc2)C1 [Tubastatin A]
Summary of the method: as §1

[1] = compound: CNC(=O)C1=CC=CC=C1NC2=NC(=NC=C2Cl)NC3=C(C=C(C=C3)N4CCOCC4)OC
Summary of the method: as §1

defactinib = compound: CNC(=O)c1ccc(Nc2ncc(C(F)(F)F)c(NCc3nccnc3N(C)S(C)(=O)=O)n2)cc1 [defactinib]
Summary of the method: as §1

rucaparib = compound: CNCc1ccc(-c2[nH]c3cc(F)cc4c3c2CCNC4=O)cc1 [rucaparib]
Summary of the method: as §1

[2] = compound: CNc1nc(-c2ccc3c(N)n[nH]c3c2)cc(N2C[C@@H](C(=O)NC3CCCCC3)CC[C@H]2C)n1
Summary of the method: as §1

encorafenib = compound: COC(=O)N[C@@H](C)CNc1nccc(-c2cn(C(C)C)nc2-c2cc(Cl)cc(NS(C)(=O)=O)c2F)n1 [encorafenib]
Summary of the method: as §1

[3] = compound: COC(=O)[C@H](CCSC)NC(=O)C1=C(C=C(C=C1)NC[C@H](CS)N)C2=CC=CC=C2
Summary of the method: as §1

Measured: log2 fold change

COPG2 (UniProt Q9UBF2)
inactive: saracatinib 0.001 | sotrastaurin -0.031 | alvocidib -0.048 | Tubastatin A 0.027 | [1] 0.018 | defactinib -0.09 | rucaparib -0.036 | [2] 0.026 | encorafenib 0.023 | [3] -0.037

COMMD8 (UniProt Q9NX08)
inactive: saracatinib -0.033 | sotrastaurin -0.03 | alvocidib -0.066 | Tubastatin A 0.033 | [1] 0.063 | rucaparib 0.005 | [2] 0.092 | encorafenib 0.029

CPED1 (UniProt A4D0V7)
inactive: saracatinib -0.163 | sotrastaurin -0.021 | alvocidib -0.011 | Tubastatin A 0.039 | [1] 0.027 | defactinib -0.004 | rucaparib 0.161 | [2] 0.042 | encorafenib 0.209 | [3] -0.005

CREB1 (UniProt P16220)
inactive: saracatinib 0 | sotrastaurin 0.026 | alvocidib 0.04 | Tubastatin A -0.066 | [1] 0.026 | defactinib -0.003 | rucaparib -0.055 | [2] 0.008 | encorafenib 0.017 | [3] 0.025

CRTAP (UniProt O75718)
inactive: saracatinib -0.058 | sotrastaurin 0.008 | alvocidib 0.08 | Tubastatin A 0.029 | [1] 0.02 | defactinib 0.094 | rucaparib 0.071 | [2] -0.011 | encorafenib 0.087 | [3] -0.076

COPE (UniProt O14579)
inactive: saracatinib -0.03 | sotrastaurin -0.014 | alvocidib 0.008 | Tubastatin A 0.02 | [1] -0.026 | defactinib -0.054 | rucaparib -0.08 | [2] -0.005 | encorafenib 0.04 | [3] 0.049

COX15 (UniProt Q7KZN9)
active: rucaparib -0.236
inactive: saracatinib 0.071 | sotrastaurin 0.004 | Tubastatin A -0.009 | [1] -0.008 | defactinib -0.003 | [2] -0.017 | encorafenib 0.023 | [3] 0.002

COMP (UniProt P49747)
inactive: saracatinib 0.01 | sotrastaurin 0.39 | alvocidib 0.025 | Tubastatin A -0.073 | [1] 0.063 | rucaparib -0.146 | [2] -0.137 | encorafenib -0.097

CORO1C isoform 3 (UniProt Q9ULV4)
inactive: saracatinib 0.032 | sotrastaurin -0.089 | alvocidib 0.023 | Tubastatin A 0 | [1] 0.017 | defactinib -0.028 | rucaparib 0.002 | [2] -0.094 | encorafenib 0.034 | [3] -0.03

COPS5 (UniProt Q92905)
inactive: saracatinib 0.02 | sotrastaurin -0.026 | alvocidib -0.056 | Tubastatin A -0.031 | [1] 0.007 | defactinib -0.036 | rucaparib -0.066 | [2] -0.019 | encorafenib 0.018 | [3] 0.002

CPEB2 isoform 9 (UniProt Q7Z5Q1)
inactive: saracatinib -0.057 | sotrastaurin 0.085 | alvocidib -0.01 | Tubastatin A -0.075 | [1] -0.186 | defactinib -0.009 | [2] 0.03 | [3] -0.262

COLGALT1 (UniProt Q8NBJ5)
inactive: saracatinib -0.125 | sotrastaurin -0.071 | alvocidib 0.085 | Tubastatin A 0.039 | [1] -0.004 | defactinib 0.103 | rucaparib 0.034 | [2] 0.051 | encorafenib 0.114 | [3] -0.022

CRELD1 isoform 2 (UniProt Q96HD1)
inactive: saracatinib 0.038 | sotrastaurin 0.014 | alvocidib -0.003 | Tubastatin A -0.025 | [1] -0.046 | defactinib 0.012 | rucaparib -0.134 | [2] -0.053 | encorafenib 0.099 | [3] 0.082

CPEB4 (UniProt Q17RY0)
inactive: saracatinib 0.012 | sotrastaurin 0.069 | alvocidib 0.052 | Tubastatin A -0.005 | defactinib 0.076 | rucaparib 0.202 | [2] 0.007 | encorafenib 0.005 | [3] 0.068

CRIPT (UniProt Q9P021)
inactive: saracatinib 0.035 | sotrastaurin 0.013 | alvocidib 0.079 | Tubastatin A -0.033 | [1] -0.038 | defactinib 0.009 | rucaparib 0.149 | [2] -0.04 | encorafenib -0.001 | [3] -0.028

CPSF7 isoform 3 (UniProt Q8N684)
inactive: saracatinib 0.006 | sotrastaurin 0.026 | Tubastatin A 0.032 | [1] -0.071 | defactinib 0.014 | rucaparib 0.033 | [2] -0.014 | encorafenib -0.014 | [3] -0.044

CS (UniProt O75390)
inactive: saracatinib -0.001 | sotrastaurin 0.02 | Tubastatin A -0.015 | [1] 0.011 | defactinib -0.069 | rucaparib 0.022 | [2] -0.055 | encorafenib -0.042 | [3] -0.002

CSNK1D (UniProt P48730)
inactive: saracatinib -0.047 | sotrastaurin -0.038 | Tubastatin A 0.039 | [1] 0.111 | defactinib 0.045 | rucaparib 0.032 | [2] -0.038 | encorafenib 0.06 | [3] -0.012

CPSF3 (UniProt Q9UKF6)
inactive: saracatinib 0.009 | sotrastaurin -0.086 | Tubastatin A 0.04 | [1] 0.07 | defactinib -0.098 | rucaparib -0.011 | [2] -0.049 | encorafenib 0.03 | [3] -0.009

CPQ (UniProt Q9Y646)
inactive: saracatinib 0.039 | sotrastaurin -0.012 | Tubastatin A 0.02 | [1] -0.049 | defactinib -0.035 | rucaparib -0.042 | [2] -0.031 | encorafenib 0.008 | [3] 0.006

CPSF1 (UniProt Q10570)
inactive: saracatinib 0.024 | sotrastaurin -0.01 | Tubastatin A -0.02 | [1] -0.05 | defactinib 0.038 | rucaparib 0.018 | [2] -0.061 | encorafenib -0.048 | [3] -0.032

COX20 isoform 2 (UniProt Q5RI15)
inactive: saracatinib 0.005 | sotrastaurin 0.008 | Tubastatin A -0.062 | [1] -0.028 | defactinib -0.017 | rucaparib 0.044 | [2] -0.025 | encorafenib -0.108 | [3] 0.009

CRKL (UniProt P46109)
inactive: sotrastaurin 0.003 | Tubastatin A 0.003 | [1] -0.01 | defactinib -0.052 | rucaparib -0.001 | [2] 0 | encorafenib 0.016 | [3] 0.008
active: saracatinib -1.42

COX7C (UniProt P15954)
inactive: saracatinib 0.026 | sotrastaurin 0.028 | Tubastatin A 0.03 | [1] 0.007 | defactinib 0.031 | rucaparib 0.011 | [2] -0.054 | encorafenib -0.06 | [3] 0.047

Fetched one by one from the list above (two):
CPEB2 isoform 9 (UniProt Q7Z5Q1)
inactive: saracatinib -0.057 | sotrastaurin 0.085 | alvocidib -0.01 | Tubastatin A -0.075 | [1] -0.186 | defactinib -0.009 | [2] 0.03 | [3] -0.262

CPED1 (UniProt A4D0V7)
inactive: saracatinib -0.163 | sotrastaurin -0.021 | alvocidib -0.011 | Tubastatin A 0.039 | [1] 0.027 | defactinib -0.004 | rucaparib 0.161 | [2] 0.042 | encorafenib 0.209 | [3] -0.005

Later entries:

COPS3 (UniProt Q9UNS2)
inactive: saracatinib -0.016 | sotrastaurin 0.02 | Tubastatin A -0.025 | [1] -0.021 | defactinib -0.023 | rucaparib -0.037 | [2] -0.013 | encorafenib -0.003 | [3] 0.033

CSNK1A1 (UniProt P48729)
inactive: saracatinib -0.028 | sotrastaurin 0.011 | Tubastatin A 0.115 | defactinib 0.058 | rucaparib 0.128 | [2] 0.042 | encorafenib 0.037 | [3] -0.016

COPS4 (UniProt Q9BT78)
inactive: saracatinib 0.028 | sotrastaurin 0.008 | Tubastatin A -0.011 | [1] -0.005 | defactinib -0.015 | rucaparib 0.004 | [2] -0.006 | encorafenib -0.001 | [3] -0.007
